The source of these data is publication PMC6746701, “A phyB-PIF1-SPA1 kinase regulatory complex promotes photomorphogenesis in Arabidopsis” (Nature Communications, 2019).

Chains of the proteins cited; added tags and fusions are not shown. Lines headed by an entry give the natural chain unless they say otherwise; changes in a name come on top. A line that says so, or that is headed by a name, gives the form on record, which may keep a tag or linker. Residues count along the entry.
UniProt P14713: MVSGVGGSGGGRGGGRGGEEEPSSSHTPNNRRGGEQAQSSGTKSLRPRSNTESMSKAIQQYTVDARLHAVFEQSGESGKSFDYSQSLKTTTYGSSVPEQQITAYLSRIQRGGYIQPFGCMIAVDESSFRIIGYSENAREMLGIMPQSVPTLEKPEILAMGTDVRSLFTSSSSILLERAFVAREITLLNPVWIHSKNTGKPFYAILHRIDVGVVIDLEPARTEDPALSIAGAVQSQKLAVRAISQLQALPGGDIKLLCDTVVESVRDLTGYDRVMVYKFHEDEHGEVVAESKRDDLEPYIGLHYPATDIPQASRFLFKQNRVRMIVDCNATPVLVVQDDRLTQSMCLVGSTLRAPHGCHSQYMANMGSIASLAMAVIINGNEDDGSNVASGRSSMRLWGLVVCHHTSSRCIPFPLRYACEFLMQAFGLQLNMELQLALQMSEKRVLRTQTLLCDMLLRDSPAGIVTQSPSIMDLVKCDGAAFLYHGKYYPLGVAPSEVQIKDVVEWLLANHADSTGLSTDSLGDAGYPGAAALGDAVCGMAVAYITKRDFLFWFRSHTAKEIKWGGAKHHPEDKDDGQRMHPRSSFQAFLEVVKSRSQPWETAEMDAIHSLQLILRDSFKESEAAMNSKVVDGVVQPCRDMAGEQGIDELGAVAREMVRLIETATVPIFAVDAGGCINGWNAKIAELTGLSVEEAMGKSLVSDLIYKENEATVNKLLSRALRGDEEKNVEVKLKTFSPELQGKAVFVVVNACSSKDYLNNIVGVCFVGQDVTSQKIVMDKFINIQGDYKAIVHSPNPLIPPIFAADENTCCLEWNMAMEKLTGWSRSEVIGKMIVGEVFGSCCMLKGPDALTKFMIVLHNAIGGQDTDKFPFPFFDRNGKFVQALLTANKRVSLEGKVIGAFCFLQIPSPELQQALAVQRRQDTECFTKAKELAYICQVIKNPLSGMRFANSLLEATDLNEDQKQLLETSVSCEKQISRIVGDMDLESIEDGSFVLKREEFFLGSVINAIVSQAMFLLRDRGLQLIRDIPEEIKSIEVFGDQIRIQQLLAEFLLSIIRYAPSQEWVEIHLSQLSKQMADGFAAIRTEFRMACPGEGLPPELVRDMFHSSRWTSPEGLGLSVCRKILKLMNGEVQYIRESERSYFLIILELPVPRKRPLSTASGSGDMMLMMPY
phyB-GFP ΔC (1-1092) (from transgenic Arabidopsis): residues 1-1092 of P14713
LexA-PHYB CT (aa 625-1172): residues 625-1172 of P14713
extreme C-terminal (C) domain of phyB fused to BD vector: residues 1093-1172 of P14713

No constants are given. Whether binding was seen depends on the method and setting. For part of these data: In cells and extracts the contact can be indirect. Some entries that bind do so weakly or less than the wild type. Where a sequence is shown, tags or fusion partners need not be part of it.

For one assay, the target named is T1, PIF1-HA (Arabidopsis) (UniProt Q8GZM7).
T1 sequence: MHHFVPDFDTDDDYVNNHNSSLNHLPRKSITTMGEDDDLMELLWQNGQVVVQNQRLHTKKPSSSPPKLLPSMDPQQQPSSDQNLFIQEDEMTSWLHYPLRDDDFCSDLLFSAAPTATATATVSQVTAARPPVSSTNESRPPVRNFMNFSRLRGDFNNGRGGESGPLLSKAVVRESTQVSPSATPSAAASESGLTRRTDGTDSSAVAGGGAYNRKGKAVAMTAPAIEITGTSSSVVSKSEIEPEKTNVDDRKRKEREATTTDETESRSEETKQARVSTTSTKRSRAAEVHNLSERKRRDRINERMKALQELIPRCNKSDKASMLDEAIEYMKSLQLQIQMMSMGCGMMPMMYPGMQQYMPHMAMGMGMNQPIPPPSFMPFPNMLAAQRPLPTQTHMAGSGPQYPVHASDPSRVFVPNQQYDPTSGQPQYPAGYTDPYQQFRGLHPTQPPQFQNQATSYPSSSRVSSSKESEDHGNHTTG
As to the kind of experiment: co-IP; in vivo; extracts of 4-day-old dark-grown transgenic seedlings kept dark or given red light; anti-HA or anti-GFP antibody on Dynabeads, 2 h at 4 °C in the dark; 50 mM Tris pH 7.5, 150 mM NaCl, 0.1% Tween-20; immunoblot. (In general: Immunoblotting shows a protein as a band on a membrane.)

In assay [1] the target is extreme C-terminal (C) domain of phyB fused to BD vector (Arabidopsis) (UniProt P14713). Description: two-hybrid; LexA (BD) baits and AD preys in yeast EGY48; β-galactosidase activity normalised by the AD empty vector.
The target in assay [2] is LexA-PHYB CT (aa 625-1172) (Arabidopsis) (UniProt P14713). The description is as above.
Assay [3] deals with T2, phyA holo-phytochrome purified from Saccharomyces cerevisiae (Arabidopsis) (UniProt P14712).
T2 sequence (chain, holo-phytochrome (chromophore bound)): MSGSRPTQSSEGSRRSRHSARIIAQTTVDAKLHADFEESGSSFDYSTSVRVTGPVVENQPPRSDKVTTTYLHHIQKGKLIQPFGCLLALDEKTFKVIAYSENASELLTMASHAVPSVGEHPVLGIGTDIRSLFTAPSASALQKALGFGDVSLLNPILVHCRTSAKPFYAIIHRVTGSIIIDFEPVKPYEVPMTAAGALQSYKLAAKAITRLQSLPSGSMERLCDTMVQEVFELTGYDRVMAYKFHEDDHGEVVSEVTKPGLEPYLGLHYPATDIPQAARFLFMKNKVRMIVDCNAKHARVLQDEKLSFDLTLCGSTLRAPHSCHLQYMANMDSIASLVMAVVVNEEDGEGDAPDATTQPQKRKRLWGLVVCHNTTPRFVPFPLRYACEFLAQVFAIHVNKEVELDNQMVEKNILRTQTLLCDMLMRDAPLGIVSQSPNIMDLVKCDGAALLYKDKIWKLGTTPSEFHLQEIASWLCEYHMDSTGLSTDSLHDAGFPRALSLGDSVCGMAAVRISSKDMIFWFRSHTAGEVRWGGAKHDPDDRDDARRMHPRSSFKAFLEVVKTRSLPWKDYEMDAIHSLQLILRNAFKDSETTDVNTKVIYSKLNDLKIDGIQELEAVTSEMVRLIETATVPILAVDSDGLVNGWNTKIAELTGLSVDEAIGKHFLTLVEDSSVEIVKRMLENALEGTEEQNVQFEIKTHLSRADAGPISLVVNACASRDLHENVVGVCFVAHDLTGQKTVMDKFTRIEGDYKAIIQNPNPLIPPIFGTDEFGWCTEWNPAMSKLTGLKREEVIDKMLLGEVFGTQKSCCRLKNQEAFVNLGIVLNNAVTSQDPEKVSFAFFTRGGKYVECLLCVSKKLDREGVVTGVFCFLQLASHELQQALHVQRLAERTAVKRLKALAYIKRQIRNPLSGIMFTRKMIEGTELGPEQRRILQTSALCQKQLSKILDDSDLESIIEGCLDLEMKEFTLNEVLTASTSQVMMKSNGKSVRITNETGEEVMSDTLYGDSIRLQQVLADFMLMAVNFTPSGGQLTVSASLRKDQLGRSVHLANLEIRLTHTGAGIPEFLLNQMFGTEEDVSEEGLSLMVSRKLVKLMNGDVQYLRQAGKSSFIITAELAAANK
Description: pull-down; in vitro: phytochromes purified from yeast (S. cerevisiae) and GST-PIF1; light-dependent; both purified.

Assay [4] addresses phyB-GFP ΔC (1-1092) (from transgenic Arabidopsis) (Arabidopsis) (UniProt P14713). Description: co-IP; in vivo; extracts of 4-day-old dark-grown transgenic seedlings kept dark or given red light; anti-HA or anti-GFP antibody on Dynabeads, 2 h at 4 °C in the dark; 50 mM Tris pH 7.5, 150 mM NaCl, 0.1% Tween-20; immunoblot.
In assay [5] the target is phyB-GFP FL (from transgenic Arabidopsis) (Arabidopsis) (UniProt P14713). The description is as above.

B1: TAP-SPA1 (protein, UniProt Q9SYX2 1-1029)
chain: MPVMERVAEETVATNNIQLKARVDDVPCNKLDARHNDMVIQSETANSDCPGSSAHRNVDLTKPPPPEEAAGAKLSVEELTLGNYRIVQGSNNTNVDSPRAGKFEHLYRLARGSAFRAGDGDLDSQPRDMDQMLSRIRQQLAGAPSERQNLKPFMSRRSDQNLEAFSERLRAAGENSIMNAPALISEGVQMKTPVSSSNFSQLLLKRAMKGKGVVGKNQETPPEFVSDQDLGSKEKKLDISKSPTPHDVLPLKSSPKGNGMVSHGDGNHSKSSIGISLREFLRSSYAKREKRHGLCLFRQLVELVDSAHSKRLFLLDLRPSLFTLVPSKKLRYIGNFGKNDLESDVDEDLNRRRPVVEESSSGGRDSKKRKMDLHLNSPGNQLQATSTGRPFKRKSPVIDLNMVDARNPDSCELQQQDYIKNLSVSSVSRKQSMSTWLEEQWYTCPEEINGEDIGEKSNIYALGVLLFELLCHCESGEMHAAMMADLRHRILPPTFLSKYPKEAGFCLWLLHPEPSSRPSARDILKSELICEDDSVKSTAAAEEISELLLHFLSSLEVQKKKKASKLLQDIQTLEDDIKEAERRYSSNVSLVRSHGAIEKRVQSSPLDEHCTTSSALFVPTANTDRLMSNIRQLEDAYFFMRSQINLSSSAATARSDKTLKDRDRCSENQNENQDMSTKGKSSDQLEVFFEGLCKFARYSKFETCGTIRSGDLLNSASVVCSLSFDPDEEHIAAAGISKKIKIFDFNAFMNESVGVHYPLVEMVNKSKLSCVCWNSYIKNYLASTDYDGVVQIWDAGTGQGFSQYTEHQKRAWSVDFSPSDPTKFVSGSDDCSVKLWSINEKRSLGTIWSPANVCCVQFSSYSNHLLAFGSADYKVYCYDLRYVKTPWCTLAGHEKAVSYVKFMDSETIVSASTDNSLKLWNLNKTNSSGLSPGACSLTYKGHTNQKNFVGLSVLDGYIACGSETNEVYSYYKSLPMPMTSYKFGSVDPISGNEYFDDNGQFVSSVCWRKKSNMLVAANSTGNMKLLKLV
On to B1, for which the binding result with PIF1-HA (Arabidopsis) is reported as “binds”.

B2: AD-SPA1, full-length (prey of the LexA two-hybrid system) (protein, UniProt Q9SYX2 1-1029)
chain: MPVMERVAEETVATNNIQLKARVDDVPCNKLDARHNDMVIQSETANSDCPGSSAHRNVDLTKPPPPEEAAGAKLSVEELTLGNYRIVQGSNNTNVDSPRAGKFEHLYRLARGSAFRAGDGDLDSQPRDMDQMLSRIRQQLAGAPSERQNLKPFMSRRSDQNLEAFSERLRAAGENSIMNAPALISEGVQMKTPVSSSNFSQLLLKRAMKGKGVVGKNQETPPEFVSDQDLGSKEKKLDISKSPTPHDVLPLKSSPKGNGMVSHGDGNHSKSSIGISLREFLRSSYAKREKRHGLCLFRQLVELVDSAHSKRLFLLDLRPSLFTLVPSKKLRYIGNFGKNDLESDVDEDLNRRRPVVEESSSGGRDSKKRKMDLHLNSPGNQLQATSTGRPFKRKSPVIDLNMVDARNPDSCELQQQDYIKNLSVSSVSRKQSMSTWLEEQWYTCPEEINGEDIGEKSNIYALGVLLFELLCHCESGEMHAAMMADLRHRILPPTFLSKYPKEAGFCLWLLHPEPSSRPSARDILKSELICEDDSVKSTAAAEEISELLLHFLSSLEVQKKKKASKLLQDIQTLEDDIKEAERRYSSNVSLVRSHGAIEKRVQSSPLDEHCTTSSALFVPTANTDRLMSNIRQLEDAYFFMRSQINLSSSAATARSDKTLKDRDRCSENQNENQDMSTKGKSSDQLEVFFEGLCKFARYSKFETCGTIRSGDLLNSASVVCSLSFDPDEEHIAAAGISKKIKIFDFNAFMNESVGVHYPLVEMVNKSKLSCVCWNSYIKNYLASTDYDGVVQIWDAGTGQGFSQYTEHQKRAWSVDFSPSDPTKFVSGSDDCSVKLWSINEKRSLGTIWSPANVCCVQFSSYSNHLLAFGSADYKVYCYDLRYVKTPWCTLAGHEKAVSYVKFMDSETIVSASTDNSLKLWNLNKTNSSGLSPGACSLTYKGHTNQKNFVGLSVLDGYIACGSETNEVYSYYKSLPMPMTSYKFGSVDPISGNEYFDDNGQFVSSVCWRKKSNMLVAANSTGNMKLLKLV
Take B2: the binding entry in assay [1] and in assay [2] was “binds” in each case.

B3: GST-PIF1-strep (natural protein, Arabidopsis, UniProt Q8GZM7 1-478, looked up)
chain: MHHFVPDFDTDDDYVNNHNSSLNHLPRKSITTMGEDDDLMELLWQNGQVVVQNQRLHTKKPSSSPPKLLPSMDPQQQPSSDQNLFIQEDEMTSWLHYPLRDDDFCSDLLFSAAPTATATATVSQVTAARPPVSSTNESRPPVRNFMNFSRLRGDFNNGRGGESGPLLSKAVVRESTQVSPSATPSAAASESGLTRRTDGTDSSAVAGGGAYNRKGKAVAMTAPAIEITGTSSSVVSKSEIEPEKTNVDDRKRKEREATTTDETESRSEETKQARVSTTSTKRSRAAEVHNLSERKRRDRINERMKALQELIPRCNKSDKASMLDEAIEYMKSLQLQIQMMSMGCGMMPMMYPGMQQYMPHMAMGMGMNQPIPPPSFMPFPNMLAAQRPLPTQTHMAGSGPQYPVHASDPSRVFVPNQQYDPTSGQPQYPAGYTDPYQQFRGLHPTQPPQFQNQATSYPSSSRVSSSKESEDHGNHTTG
notes: source: E. coli BL21(DE3), purified (Strep-Tactin Sepharose); not shown: GST, N-terminal, kept; Strep tag, C-terminal, kept
As for B3, the binding result in assay [3] was “binds”.

B4: PIF1 in phyB-GFP FL and phyB-GFP ΔC plants (protein, UniProt Q8GZM7 1-478)
chain: MHHFVPDFDTDDDYVNNHNSSLNHLPRKSITTMGEDDDLMELLWQNGQVVVQNQRLHTKKPSSSPPKLLPSMDPQQQPSSDQNLFIQEDEMTSWLHYPLRDDDFCSDLLFSAAPTATATATVSQVTAARPPVSSTNESRPPVRNFMNFSRLRGDFNNGRGGESGPLLSKAVVRESTQVSPSATPSAAASESGLTRRTDGTDSSAVAGGGAYNRKGKAVAMTAPAIEITGTSSSVVSKSEIEPEKTNVDDRKRKEREATTTDETESRSEETKQARVSTTSTKRSRAAEVHNLSERKRRDRINERMKALQELIPRCNKSDKASMLDEAIEYMKSLQLQIQMMSMGCGMMPMMYPGMQQYMPHMAMGMGMNQPIPPPSFMPFPNMLAAQRPLPTQTHMAGSGPQYPVHASDPSRVFVPNQQYDPTSGQPQYPAGYTDPYQQFRGLHPTQPPQFQNQATSYPSSSRVSSSKESEDHGNHTTG
With B4, the binding result in assay [4] and in assay [5] was “binds” throughout.
